The whole screen tested about 330,000 compounds, of which about 7,700 (2.3%) were called active. The shares of active, inactive and inconclusive entries below differ from those in the screen. The call rests on the fitted dose curve; in most records, active means well fitted inhibition curve with a large enough effect; inconclusive means small, poorly fitted or top-dose-only effect, or effect the other way; inactive means flat fitted curve, though single readings scatter. Potencies beside an inconclusive call are fits to weak or partial responses and may not hold up.
Test: qHTS screen for small molecules that inhibit ELG1-dependent DNA repair in human embryonic kidney (HEK293T) cells expressing luciferase-tagged ELG1; further: nearly all actives have a fitted effect of over 55% in size
Details: HEK293T ELG1-luciferase reporter, luminescence, 16 h, DNA damage induced by 5-fluorouridine; series mostly up to 46.1 µM
In short: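 HEK293T cells expressing luciferase-tagged ELG1 (2,000/well) received 5-Fluorouridine plus compound or DMSO for 16 hr at 37 °C. Luciferase was read by ONE-Glo luminescence after 30 min at room temperature.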
Potency means the concentration at half of the fitted maximal effect.

Structure (SMILES)	Potency
CCOC(=O)C1=C(C)N=C2c3ccccc3C(=O)C2C1c1ccc(Br)cc1 (stereo unspecified)	inconclusive: 18.4 µM [inhibitor, partial curve]
O=C(COc1ccc(Cl)cc1Cl)Nc1ccccc1NS(=O)(=O)c1cccs1	inconclusive: 29.1 µM [activator, single point]
COc1ccc(Cl)cc1NC(=O)C(C)Sc1nnc(C2CC2)n1C1CC1 (stereo unspecified)	inactive
O=C(O)CCc1nc2ccccc2c(=O)[nH]1	inactive
CCn1c(SCC(=O)N2CC(C)OC(C)C2)nc2c([nH]c3ccccc32)c1=O (stereo unspecified)	active: 3.26 µM
NC(=O)c1ccsc1NC(=O)C1CCCCC1	inconclusive: 16.4 µM [activator, single point]
COC(=O)c1ccc(C)c(NC(=O)Cc2coc3cc(OC)ccc23)c1	inconclusive: 32.6 µM [inhibitor, single point]
CCc1nnc(NC(=O)CSc2nc(-c3ccc(OC)cc3)ns2)s1	inconclusive: 10.3 µM [activator, partial curve]
COc1ccccc1CCNCc1ccc(OC)c(OCc2ccccc2)c1	inactive
O=C1CCN(Cc2ccccc2)C=C1c1cccc(O)c1	inactive
O=C(COc1ccc(Cl)cc1)NC1CC1	inconclusive: 18.3 µM [activator, single point]
CCN(c1ccccc1)S(=O)(=O)c1cccc(C(=O)N(C)CCOc2ccccc2)c1	inconclusive: 32.6 µM [inhibitor, partial curve, poor fit]
O=C(Nc1ccc(Br)cn1)c1ccc(Cl)s1	inconclusive: 9.2 µM [activator, partial curve]
O=C(N/N=C/c1cccnc1)c1cccc(N2CCCC2=O)c1	inconclusive: 20.6 µM [activator, partial curve]
COc1ccc(C)cc1S(=O)(=O)N(C)CC(=O)N1CCCC1	inconclusive: 7.08 µM [inhibitor, partial curve, poor fit]
CCOC(=O)c1oc2cc(OCC(=O)OC)ccc2c(=O)c1-c1ccc(OC)c(OC)c1	inconclusive: 29.1 µM [activator, single point]
CNc1nc(N)c([N+](=O)[O-])c(NCc2ccccc2)n1	inconclusive: 16.4 µM [activator, single point]
Cc1cccc(N2CC(C(=O)Nc3ccc(S(=O)(=O)N4CCOCC4)cc3)CC2=O)c1 (stereo unspecified)	inconclusive: 29.1 µM [activator, partial curve, poor fit]
O=C(Nc1cccc(S(=O)(=O)C(F)F)c1)c1ccc(S(=O)(=O)N2CCCCC2)cc1	active: 13 µM
CCCN(C(=O)CSc1nnc2ccccn12)C1CCS(=O)(=O)C1 (stereo unspecified)	inactive
COc1ccc(-c2ccc(-c3nc4ccc(C)cn4c3NC3CCCCC3)cc2OC)cc1	inconclusive: 3.16 µM [inhibitor, single point]
CN1CCN(CCCNC(=O)c2ccc(/C=C3/Sc4ccccc4N(Cc4cccc(Cl)c4)C3=O)cc2)CC1	inconclusive: 29.1 µM [activator, single point]
CC(CC(=O)Nc1ccccc1)NCCCN1CCCC1=O (stereo unspecified)	inconclusive: 13 µM [activator, single point]

Structure (SMILES)	Potency
COc1ccc(S(=O)(=O)Nc2c(C)c(C)cc3c2ncn3C)cc1	inactive
O=c1c2c(-c3ccco3)csc2nc(SCc2cn3cccnc3n2)n1-c1ccccc1	inconclusive: 29.1 µM [inhibitor, single point]
Cc1ccc(NC(=O)CSc2nc(N)c3c4c(sc3n2)CSC(C)(C)C4)cc1	inconclusive: 29.1 µM [inhibitor, single point]
CCc1cc(C(=O)Nc2ncccc2O)sc1C	inconclusive: 0.73 µM [activator, full curve]
CCOC(=O)[C@@H]1[C@H]2COc3cc(OC)ccc3[C@@H]2N2C(=O)N(c3cccc(Cl)c3)C(=O)[C@]12C	inactive
O=C(NCCc1ccccc1)c1cccs1	inconclusive: 4.11 µM [activator, partial curve]
COc1ccccc1C(=O)NC(=O)COC(=O)CCOc1cc(C)ccc1C	inactive
COc1ccc(C(=O)NN/C(C)=C/C(=O)c2ccccc2)cc1	inactive
COc1cccc2cc(C(=O)NCc3ccc(C)cc3)c(=N)oc12	inactive
CCCn1nc(C(=O)NC2CCCc3ccccc32)c2ccccc2c1=O (stereo unspecified)	active: 16.4 µM
N#Cc1cccc(NC(=O)CNc2cccc(S(=O)(=O)N3CCCC3)c2)c1	inconclusive: 0.164 µM [inhibitor, partial curve, poor fit]
Cn1cnnc1SCC(=O)Nc1ncc([N+](=O)[O-])s1	inconclusive: 18.3 µM [activator, partial curve, poor fit]
COc1ccc(Cl)cc1NC(=S)NCc1cccnc1	inactive
COc1ccc(C(=O)Nc2nc3ccccc3c(=O)[nH]2)cc1	inconclusive: 4.61 µM [activator, partial curve]
O=C(COc1ccc(Cl)cc1)NCc1nnc(SCC(=O)N2CCCCCC2)o1	inactive
O=C(CNC(=O)c1ccccc1F)NCCc1ccccc1F	inconclusive: 20.6 µM [activator, partial curve]
CSc1ncccc1C(=O)Nc1nnc(C2CC2)s1	inactive
O=C(COC(=O)c1ccc(F)cc1Cl)NCc1ccco1	inconclusive: 18.3 µM [activator, single point]
CC(=O)NCCc1csc(-c2ccccc2)n1	inconclusive: 16.4 µM [activator, single point]
CCc1ccc2c(c1)[C@H]1OCC[C@H]1[C@@H](c1cccs1)N2	inactive
CCOc1ccccc1C(=O)N1CCN(c2ccc(C(F)(F)F)cn2)CC1	inconclusive: 11.6 µM [inhibitor, partial curve]
CS(=O)(=O)N(CC(=O)N/N=C/c1cc([N+](=O)[O-])ccc1Cl)c1ccccc1	inactive
COc1ccc(OCCOc2ccc(S(=O)(=O)N3CCCC3)cc2C(N)=O)cc1	inconclusive: 7.3 µM [inhibitor, partial curve, poor fit]

3 entries picked at random from those above:
Structure (SMILES)	Potency
Cn1cnnc1SCC(=O)Nc1ncc([N+](=O)[O-])s1	inconclusive: 18.3 µM [activator, partial curve, poor fit]
COc1ccc(C(=O)NN/C(C)=C/C(=O)c2ccccc2)cc1	inactive
O=C1CCN(Cc2ccccc2)C=C1c1cccc(O)c1	inactive
